# Out of some 320,000 compounds screened, about 2,100 (0.66%) were called active. The shares of active, inactive and inconclusive entries below differ from those in the screen. Calls follow the shape of the dose curve; as a rule, active = well fitted inhibition curve with a large enough effect in the signal ratio, with a control signal flat (not every such curve was filed as active); inconclusive = small, poorly fitted or top-dose-only effect, or effect the other way, or a change in a side signal; inactive = flat fitted curve, though single readings scatter; the % refers to the signal ratio. Where the call is inconclusive, the potency comes from a doubtful curve fit.
# Assay: qHTS Assay for Lipid Storage Modulators in Drosophila S3 Cells
# Conditions: BODIPY lipid droplet fluorescence, 18-24 h, cells fed with added oleic acid; lipid storage change, negative = inhibition: at 46.1 µM (top of the series) unless noted
# Source text: NIH Molecular Libraries Probe Production Centers Network [MLPCN] NIH Chemical Genomics Center [NCGC] MLPCN Grant: 1 R03 MH085686-01 Assay Submitter (PI): Beller, Mathias; Max-Planck-Institut fur Biophysikalische Chemie NCGC Assay Overview: Storing lipids as a reservoir for energy or the anabolism of elementary metabolites is a common feature of probably all cells and is conserved from bacteria to humans. The universal cellular lipid storage organelle is the so-called lipid storage droplet (LD). Although ubiquitous, LDs share a simple structure composed of a hydrophobic core that harbors the storage lipids, which is shielded by a droplet-specific phospholipid monolayer to which proteins are attached. The current model of LD biogenesis involves an incorporation of the lipid core into the membrane leaflets of the endoplasmic reticulum (ER) followed by a subsequent budding-like maturation of a LD, which ultimately pinches off. Once released, LD volume can increase by localized lipogenesis or fusion of existing droplet. Storage lipids are re-mobilized enzymatically by lipase activity. Lipase regulation in the adipocyte is heavily studied and involves multiple components including catecholamine signaling, the LD-associated proteins Perilipin and comparative gene identification (CGI-58) and at least two lipases named hormone sensitive lipase (HSL) and adipocyte triglyceride lipase (ATGL). LD regulation outside of the adipocyte is poorly understood and only few components are known. However, there is an urgent need to learn more about ectopic fat depots as mislocalized storage of lipids, for example in the liver or muscle, is an eminent health problem associated with insulin resistance or the metabolic syndrome. We developed a laser-scanning cytometer assay to enable 1,536-well screening and combined the results of the small molecules screen with an RNAi database based on lipid storage.
# Triacsin C (Sigma-Aldrich T-4540), an inhibitor of long-chain fatty acyl CoA synthetase that blocks synthesis of triglycerides, was used as a positive control for lipid under-storage. A total of 23 nL of compound solution of different concentrations were transferred to the assay plates using a Kalypsys pin tool equipped with a 1,536-pin array containing 10-nL slotted pins (FP1S10, 0.457-mm diameter, 50.8 mm long; V&P Scientific). One microliter of oleic acid (400 uM) was added, and the plate was lidded with stainless steel rubber gasket lined lids containing pinholes. […] Fluorescence was detected by excitation of the fluorophores with a 488-nm laser on an Acumen Explorer (TTP Lab Tech). The total intensity in channel 2 (500-530 nm) reflected lipid droplet accumulation. Cells were detected using channel 3 (575-640 nm) with 5-um width and 100-um depth filters. The ratio of the number of objects in PMT channel 2 over the number of objects in PMT channel 3 was also calculated. Percent activity was computed relative to an internal control (100% inhibited lipid droplet deposition due to the presence of 20 uM Triacsin C), which was added to 32 wells/plate.
# % is scaled to controls: 0 for no effect and ±100 for the full control effect; potency is read from the fitted curve at half-maximal effect.
SMILES,"lipid storage change, negative = inhibition",Potency
COc1cccc(Nc2ccc(C(=O)O)cc2N)c1,inconclusive: 7.58%,–
N#Cc1cc2c(ccc3ccccc32)oc1=O,inconclusive: -7.07%,–
COc1ccc(C2=NC(C(F)(F)F)(C(F)(F)F)c3c(n(C)c(=O)n(C)c3=O)N2)cc1,–,"inconclusive: 29.1 µM [rising, partial curve]"
NC(=O)C1CCC(NC(=O)OCc2ccccc2)CC1 (stereo not given),inconclusive: -39.7%,–
Cc1ccc(-n2nc(C)c(=O)c(-c3ccccc3)c2NC(=O)C(C)C)cc1,–,"inconclusive: 0.517 µM [falling, partial curve, poor fit]"
O=C(Nc1ccccc1N1CCOCC1)C1CCN(S(=O)(=O)c2cccc(C(F)(F)F)c2)CC1,inconclusive: 34.8% [activator],–
CCn1nc(C)cc1C(=O)NC1CCCc2c1cnn2-c1cc(F)cc(F)c1 (stereo not given),–,"inconclusive: 0.651 µM [falling, full curve, poor fit]"
O=C(/C=C\c1ccco1)Nc1ccc(N2CCN(C(=O)c3ccccc3)CC2)cc1,inconclusive: -29.9%,–
Cc1cccc(CCNS(=O)(=O)c2cc3c(cc2C)NC(=O)CO3)c1,–,"inconclusive: 2.06 µM [falling, full curve, poor fit]"
Cc1ccccc1CN1CCN(Cc2cc3ccccc3o2)CC1CCO (stereo not given),inconclusive: -30.9%,–
CC(=O)c1ccc(OCc2cc(C(=O)N(C)Cc3ccon3)no2)cc1,inconclusive: -0.788%,–
CC(=O)Nc1ccc(NC(=O)C23CC4CC(C2)CC(n2cnc(Br)n2)(C4)C3)cc1,inconclusive: 13.6%,–
O=C(CC1CCCCC1)NCCS(=O)(=O)N1CCN(c2ccccc2)CC1,–,"inconclusive: 29.1 µM [falling, single point]"
Cc1cc(NC(=O)CSc2nnnn2-c2ccccc2C)no1,inconclusive: 31.2%,–
CN(C(=S)Nc1ccc(Oc2ccccc2)cc1)c1ccc(O)cc1,inconclusive: -11.7%,–
COc1ccc2[nH]c(=O)c(CN(Cc3nnnn3Cc3ccccc3)CC3CCCO3)cc2c1 (stereo not given),inconclusive: 23.7%,–
CCn1c(CNC(=O)c2cccc(C)c2)nnc1SCC(=O)NC1=NCCS1,inconclusive: -35.9%,–
COc1ccccc1CNC(=O)N1CCN(c2ccccc2C)CC1,–,"inconclusive: 0.164 µM [activator, full curve, poor fit]"
CC1Cc2ccccc2N1C(=O)CSC1=NCCS1 (stereo not given),–,"inconclusive: 0.116 µM [falling, full curve, poor fit]"
COc1ccc(OC)c(NC(=O)c2cc3c(Cl)nc4ccccc4c3s2)c1,inconclusive: 19.1%,–
O=C(Nc1cccc(-c2nc3ccccc3o2)c1)c1cccnc1,inconclusive: 9.6%,–
C=CCN(CC=C)CCCOc1ccccc1C(=O)OC,inconclusive: -33.5%,–
Cc1ccc(-c2noc(N=O)c2NO)cc1,inconclusive: -9.87%,–
Cc1nnc(N2C(=O)c3ccc(Br)cc3C2=O)s1,–,"inconclusive: 29.1 µM [activator, single point]"
CCC(Oc1ccccc1)C(=O)N1CC(C)CC(C)C1 (stereo not given),–,"inconclusive: 7.31 µM [falling, partial curve, poor fit]"

# Two entries from above, bar-delimited.
SMILES | lipid storage change, negative = inhibition | Potency
Cc1cc(NC(=O)CSc2nnnn2-c2ccccc2C)no1 | inconclusive: 31.2% | –
CN(C(=S)Nc1ccc(Oc2ccccc2)cc1)c1ccc(O)cc1 | inconclusive: -11.7% | –

# More records follow.

SMILES,"lipid storage change, negative = inhibition",Potency
CN1CCN(c2c(F)cc3c(=O)c(C(=O)O)cn(CCF)c3c2F)CC1,–,"inconclusive: 3.66 µM [cytotoxic, full curve]"
Cc1ccc2c([N+](=O)[O-])cccc2n1,inconclusive: -14.6%,–
CCOc1ccccc1-n1nnnc1SCC(=O)NC(=O)Cc1ccccc1,–,"inconclusive: 0.0651 µM [activator, full curve, poor fit]"
COc1ccc(CC(=O)NNS(=O)(=O)c2ccc3ccccc3c2)cc1OC,inconclusive: 38.8%,–
Cc1ccc2cc(CN(CC3CCCO3)C(=O)NC3CCCCC3)c(=O)[nH]c2c1C (stereo not given),inconclusive: 13.5%,–
C/C(=N\N=C\c1cccc(F)c1)c1nnn(-c2nonc2N)c1C,inactive: 20.8%,–
Cc1cccc2cc(CN(Cc3cccnc3)C(=S)NCCCN(C)C)c(=O)[nH]c12,inconclusive: -22.9%,–
O=C(CCCCCN1C(=O)c2ccccc2C1=O)NCc1ccco1,inconclusive: 11.6%,–
COCCn1c(C)nc2oc3ccc(Br)cc3c(=O)c2c1=O,inconclusive: 53.2% [activator],–
O=C(NCc1ccccc1)c1cc(-n2cnnc2)ccc1Cl,inconclusive: -8.14%,–
Cc1noc(C)c1S(=O)(=O)NCC(=O)O,inconclusive: 1.95%,–
Cc1[nH]c(=O)[nH]c(=O)c1NC(=O)c1sc2nc3c(C)cccc3cc2c1N,inconclusive: 11.4%,–
CCN(C(=O)c1ccc(N2CC3CC(C2)c2cccc(=O)n2C3)c(NC(=O)c2ccncc2)c1)c1cccc(C)c1 (stereo not given),inconclusive: 34%,–
COc1ccc(-c2nc(CS(=O)CC(=O)NCCN3CCCCCC3)c(C)o2)cc1OC (stereo not given),inconclusive: 7.7%,–
S=C(NCc1ccccc1)N1CCn2cccc2C1c1ccncc1 (stereo not given),inactive: 5.38%,–
O=C(CN1CCSC1=O)N1CCN(S(=O)(=O)c2ccc(F)cc2)CC1,inconclusive: 11%,–
Clc1cccc(Cl)c1C1=NOC(c2nnc(-c3ccccc3)o2)C1 (stereo not given),inconclusive: 34.8%,–
CC(=O)c1c(C)n(-c2cccc(Cl)c2)c2ccc(O)cc12,inconclusive: 30.1%,–
O=C(c1ccccc1NS(=O)(=O)c1ccc(F)cc1)N1CCOCC1,inconclusive: 7.11%,–
Cc1ccc(C)c(S(=O)(=O)Nc2ccc(C(=O)NCCCN3CCOCC3)cc2)c1,inconclusive,–
COc1cccc(NC(=O)c2ccccc2-c2nc(-c3ccc(Cl)cc3)no2)c1,–,"inconclusive: 14.6 µM [activator, single point]"
COc1cc(Cl)cc(CN2CCC(CCC(=O)NC3CC3)CC2)c1OC,inconclusive: 18.4%,–
COc1ccc(NC(=O)c2cc(-c3ccc(C)cc3)on2)cc1OC,inconclusive: -38.5%,–
O=C(CSc1nc2c(sc3ccccc32)c(=O)n1CCO)NCc1ccco1,–,"inconclusive: 25.9 µM [falling, partial curve, poor fit]"
O=S(=O)(N/N=C/c1ccc(Cl)cc1)c1ccc(Cc2ncc(C(F)(F)F)cc2Cl)s1,–,"inconclusive: 0.13 µM [activator, full curve, poor fit]"
